Measurements taken from the supplement of paper PMC6078165.
± gives the standard deviation of the averaged measurements. The reference is the same well before dosing, and untreated signal decays as well.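 The cancer cells are triple-negative breast cancer lines of basal-like or mesenchymal-like type, grown without fibroblasts. A drop in red signal reflects loss of mitochondrial integrity, a stand-in for apoptotic death.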

Assays:
Assay in all cases: relative JC-1 red fluorescence (viability) vs pre-drug, monoculture (fraction); higher = more viable cancer cells
Settings in all cases: coculture fibroblast: none (monoculture)
[1] = system: BT20
Procedure: (§1)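 JC-1 labelled TNBC cells grown in monoculture (density kept equal with unlabelled cancer cells) in 384-well plates in FluoroBrite medium, treated with one of 42 anticancer drugs at 0.1, 1, 10 or 100 uM. JC-1 red fluorescence (mitochondrial integrity, surrogate of apoptotic death) was read by plate reader every 8 h for 72 h. Values are normalised to each well's pre-drug value, with background from alamethicin. The stock of one drug was tenfold lower, so its dose labels may be too high. Monoculture values are repeated alongside each fibroblast plate and are averaged here.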

[2] = system: Hs578T
Procedure: as §1

[3] = system: MDAMB468
Procedure: as §1

[4] = system: MDAMB231
Procedure: as §1

O=c1[nH]cc(F)c(=O)[nH]1 [Fluorouracil]
relative JC-1 red fluorescence
Settings	8 h	16 h	24 h	32 h	40 h	48 h	56 h	64 h	72 h
[1], 0.1 µM	0.925 ± 0.024	0.869 ± 0.039	0.767 ± 0.048	0.707 ± 0.052	0.678 ± 0.056	0.655 ± 0.059	0.638 ± 0.069	0.616 ± 0.07	0.608 ± 0.069
[1], 1 µM	0.942 ± 0.017	0.907 ± 0.027	0.865 ± 0.032	0.806 ± 0.031	0.755 ± 0.021	0.741 ± 0.018	0.712 ± 0.025	0.69 ± 0.026	0.687 ± 0.03
[1], 10 µM	0.935 ± 0.0016	0.8542 ± 0.0014	0.772 ± 0.022	0.717 ± 0.028	0.69 ± 0.024	0.676 ± 0.027	0.663 ± 0.026	0.651 ± 0.033	0.644 ± 0.033
[1], 100 µM	0.918 ± 0.015	0.829 ± 0.0085	0.778 ± 0.02	0.7 ± 0.02	0.666 ± 0.024	0.639 ± 0.026	0.61 ± 0.034	0.587 ± 0.035	0.573 ± 0.044
[2], 0.1 µM	0.839 ± 0.015	0.755 ± 0.011	0.617 ± 0.0073	0.57 ± 0.024	0.4951 ± 0.00068	0.451 ± 0.015	0.413 ± 0.023	0.398 ± 0.032	0.376 ± 0.035
[2], 1 µM	0.865 ± 0.016	0.7856 ± 0.0024	0.737 ± 0.04	0.67 ± 0.029	0.638 ± 0.034	0.627 ± 0.04	0.604 ± 0.043	0.599 ± 0.052	0.591 ± 0.05
[2], 10 µM	0.854 ± 0.035	0.755 ± 0.039	0.681 ± 0.055	0.629 ± 0.045	0.575 ± 0.037	0.557 ± 0.041	0.531 ± 0.033	0.524 ± 0.035	0.514 ± 0.037
[2], 100 µM	0.8507 ± 0.0052	0.7296 ± 0.0025	0.717 ± 0.02	0.6427 ± 0.0051	0.607 ± 0.021	0.589 ± 0.029	0.564 ± 0.028	0.561 ± 0.034	0.549 ± 0.035
[3], 0.1 µM	0.8882 ± 0.0065	0.828 ± 0.0015	0.76 ± 0.019	0.678 ± 0.019	0.618 ± 0.025	0.582 ± 0.021	0.552 ± 0.023	0.519 ± 0.027	0.496 ± 0.027
[3], 1 µM	0.896 ± 0.015	0.834 ± 0.041	0.806 ± 0.051	0.702 ± 0.048	0.668 ± 0.05	0.656 ± 0.054	0.626 ± 0.052	0.604 ± 0.049	0.595 ± 0.053
[3], 10 µM	0.895 ± 0.021	0.826 ± 0.037	0.764 ± 0.041	0.699 ± 0.049	0.659 ± 0.057	0.648 ± 0.073	0.614 ± 0.079	0.594 ± 0.087	0.584 ± 0.081
[3], 100 µM	0.88204 ± 0.00069	0.8052 ± 0.0042	0.797 ± 0.0091	0.741 ± 0.025	0.722 ± 0.03	0.709 ± 0.035	0.702 ± 0.047	0.686 ± 0.053	0.677 ± 0.067
[4], 0.1 µM	0.7455 ± 0.0056	0.727 ± 0.016	0.585 ± 0.011	0.59921 ± 0.00038	0.566 ± 0.019	0.541 ± 0.014	0.497 ± 0.0099	0.512 ± 0.014	0.506 ± 0.013
[4], 1 µM	0.7368 ± 0.0029	0.7082 ± 0.0045	0.6159 ± 0.0031	0.582 ± 0.018	0.527 ± 0.016	0.512 ± 0.017	0.479 ± 0.014	0.4923 ± 0.0042	0.488 ± 0.0065
[4], 10 µM	0.7486 ± 0.00097	0.711 ± 0.017	0.655 ± 0.017	0.644 ± 0.023	0.618 ± 0.014	0.606 ± 0.015	0.5736 ± 0.0047	0.5922 ± 0.0014	0.5907 ± 0.0043
[4], 100 µM	0.748 ± 0.0093	0.703 ± 0.011	0.734 ± 0.043	0.69 ± 0.029	0.664 ± 0.028	0.66 ± 0.016	0.629 ± 0.021	0.647 ± 0.0097	0.652 ± 0.011

N#Cc1ccc(C(c2ccc(C#N)cc2)n2cncn2)cc1 [Letrozole]
relative JC-1 red fluorescence
Settings	8 h	16 h	24 h	32 h	40 h	48 h	56 h	64 h	72 h
[1], 0.1 µM	0.878 ± 0.068	0.897 ± 0.045	0.815 ± 0.053	0.743 ± 0.043	0.7 ± 0.063	0.665 ± 0.069	0.632 ± 0.077	0.616 ± 0.081	0.596 ± 0.084
[1], 1 µM	0.934 ± 0.019	0.847 ± 0.035	0.79 ± 0.036	0.741 ± 0.046	0.716 ± 0.049	0.709 ± 0.048	0.68 ± 0.049	0.665 ± 0.052	0.652 ± 0.055
[1], 10 µM	0.964 ± 0.024	0.876 ± 0.057	0.863 ± 0.075	0.808 ± 0.087	0.79 ± 0.092	0.778 ± 0.093	0.759 ± 0.096	0.761 ± 0.1	0.744 ± 0.11
[1], 100 µM	0.942 ± 0.013	0.881 ± 0.019	0.813 ± 0.035	0.752 ± 0.046	0.739 ± 0.06	0.724 ± 0.067	0.696 ± 0.071	0.674 ± 0.077	0.657 ± 0.08
[2], 0.1 µM	0.876 ± 0.012	0.779 ± 0.032	0.687 ± 0.067	0.622 ± 0.056	0.589 ± 0.076	0.571 ± 0.095	0.548 ± 0.1	0.549 ± 0.12	0.555 ± 0.12
[2], 1 µM	0.861 ± 0.018	0.761 ± 0.029	0.74 ± 0.05	0.672 ± 0.06	0.627 ± 0.07	0.616 ± 0.074	0.59 ± 0.069	0.597 ± 0.074	0.598 ± 0.084
[2], 10 µM	0.901 ± 0.027	0.765 ± 0.013	0.749 ± 0.059	0.668 ± 0.049	0.627 ± 0.062	0.613 ± 0.072	0.595 ± 0.081	0.593 ± 0.096	0.587 ± 0.095
[2], 100 µM	0.893 ± 0.043	0.81 ± 0.03	0.755 ± 0.019	0.704 ± 0.026	0.654 ± 0.027	0.625 ± 0.026	0.604 ± 0.024	0.599 ± 0.023	0.583 ± 0.026
[3], 0.1 µM	0.9075 ± 0.0032	0.824 ± 0.025	0.7312 ± 0.0035	0.668 ± 0.011	0.627 ± 0.0071	0.614 ± 0.007	0.589 ± 0.0089	0.5687 ± 0.005	0.5594 ± 0.0027
[3], 1 µM	0.905 ± 0.017	0.8574 ± 0.0081	0.7982 ± 0.0056	0.739 ± 0.014	0.715 ± 0.021	0.705 ± 0.023	0.678 ± 0.025	0.66 ± 0.029	0.661 ± 0.04
[3], 10 µM	0.857 ± 0.015	0.7867 ± 0.003	0.75 ± 0.011	0.6787 ± 0.0042	0.64 ± 0.0072	0.625 ± 0.015	0.596 ± 0.025	0.581 ± 0.027	0.566 ± 0.03
[3], 100 µM	0.904 ± 0.011	0.866 ± 0.028	0.847 ± 0.022	0.793 ± 0.029	0.777 ± 0.035	0.755 ± 0.027	0.729 ± 0.019	0.699 ± 0.017	0.694 ± 0.012
[4], 0.1 µM	0.794 ± 0.023	0.708 ± 0.054	0.757 ± 0.016	0.67 ± 0.031	0.646 ± 0.038	0.662 ± 0.022	0.636 ± 0.018	0.682 ± 0.0097	0.686 ± 0.0076
[4], 1 µM	0.747 ± 0.033	0.726 ± 0.029	0.643 ± 0.07	0.608 ± 0.05	0.551 ± 0.065	0.536 ± 0.077	0.502 ± 0.079	0.519 ± 0.085	0.514 ± 0.091
[4], 10 µM	0.81 ± 0.035	0.707 ± 0.012	0.841 ± 0.021	0.722 ± 0.03	0.708 ± 0.037	0.73 ± 0.054	0.723 ± 0.067	0.773 ± 0.084	0.774 ± 0.09
[4], 100 µM	0.7924 ± 0.0071	0.7973 ± 0.0011	0.662 ± 0.027	0.713 ± 0.028	0.669 ± 0.032	0.645 ± 0.036	0.609 ± 0.037	0.605 ± 0.046	0.594 ± 0.049
